The text below walks through data of patent US20230312737A1 (REGENTS OF THE UNIVERSITY OF MINNESOTA, published 2023).

Amino acid sequences for entries named in this document (tags omitted). Residues count along the entry.
UniProt O00220, 24-239: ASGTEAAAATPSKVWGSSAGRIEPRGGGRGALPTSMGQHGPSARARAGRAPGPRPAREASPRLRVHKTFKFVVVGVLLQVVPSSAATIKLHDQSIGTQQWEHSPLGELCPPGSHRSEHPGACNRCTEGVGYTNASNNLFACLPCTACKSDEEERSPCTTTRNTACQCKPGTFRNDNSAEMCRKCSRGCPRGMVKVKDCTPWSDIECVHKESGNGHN

The target of test [1] is death receptor 5 (DR5), endogenous on Jurkat and Huh-7 cells (human, UniProt O14763 56-440). As to the kind of experiment: cell-based or functional assay.
The target in a further test is T1, Soluble-DR4-Fc (UniProt O00220 24-239).
T1 construct: Bought from Abcam (ab220558); not shown: Fc part of the bought product; not described
As to the kind of experiment: pull-down: ABYDR5-6 (200 nM) on anti-His beads with soluble DR4-Fc, Western blot. Background: In western blotting, separated proteins are transferred to a membrane and probed.

The target in test [2] is T2, DR5ΔCD-GFP (long isoform of DR5 with the cytoplasmic domain replaced by green fluorescent protein) (human, UniProt O14763 56-240).
T2 construct: Stably expressed on HEK293 cells for flow cytometry, microscopy and FRET; Residues 1-240 are the cDNA limits; no signal peptide cleavage site is stated; also called DR5-GFP; DR5ΔCD-GFP (donor)
As to the kind of experiment: flow cytometry titration of soluble His-tagged affibody on HEK293 cells stably expressing DR5ΔCD-GFP, 1:1 binding model. In general terms: Flow cytometry measures light scatter and fluorescence of single cells or particles in a stream.

B1: ABYDR5-6 (designed binder)
chain: AEAKYAKEDYLAVVEIVGLPNLTLGQTLAFIFALGDDPSQSSELLSEAKKLNDSQAPKHHHHHH
notes: Soluble protein made in E. coli from a pET vector (NheI/BamHI cloning) with a C-terminal His6 tag; also called soluble ABYDR5-6
By Kd is commonly meant the concentration at which binding is half-saturated. On to B1, for which, in test [1], the “IC50, inhibition of TRAIL-induced apoptosis (MTT assay, Jurkat cells, TRAIL 0.1 µg/mL)” value amounted to 15 nM and the “IC50, inhibition of TRAIL-induced caspase-8 activation (Jurkat cells)” value was 160 nM. Further, in the test with Soluble-DR4-Fc, the binding result was “no binding (tested: 100 nM)”. Moreover, in test [2], binding was characterised by a dissociation constant (Kd) of 94 nM.
